From paper PMC3852661, “Structural basis of SUFU–GLI interaction in human Hedgehog signalling regulation” (Acta Crystallographica Section D: Biological Crystallography, 2013)
No constants are given. Whether binding was seen depends on the method and setting. Where a sequence is shown, tags or fusion partners need not be part of it.

Molecular target: MBP-SUFU-FL (human) (UniProt Q9UMX1)
Test: SEC; HiPrep 26/60 Sephacryl S-200 HR; 10 mM Tris–HCl pH 7.4, 50 mM NaCl, 1 mM DTT; both purified

B1: MBP-SUFU-FL (domain or fragment, UniProt Q9UMX1 32-483)
chain: PGLHAIYGECRRLYPDQPNPLQVTAIVKYWLGGPDPLDYVSMYRNVGSPSANIPEHWHYISFGLSDLYGDNRVHEFTGTDGPSGFGFELTFRLKRETGESAPPTWPAELMQGLARYVFQSENTFCSGDHVSWHSPLDNSESRIQHMLLTEDPQMQPVQTPFGVVTFLQIVGVCTEELHSAQQWNGQGILELLRTVPIAGGPWLITDMRRGETIFEIDPHLQERVDKGIETDGSNLSGVSAKCAWDDLSRPPEDDEDSRSICIGTQPRRLSGKDTEQIRETLRRGLEINSKPVLPPINPQRQNGLAHDRAPSRKDSLESDSSTAIIPHELIRTRQLESVHLKFNQESGALIPLCLRGRLLHGRHFTYKSITGDMAITFVSTGVEGAFATEEHPYAAHGPWLQILLTEEFVEKMLEDLEDLTSPEEFKLPKEYSWPEKKLKVSILPDVVFDSPL
With B1 the binding was “no binding”.
